PubChem BioAssay AID2685 (National Center for Advancing Translational Sciences (NCATS), 2010)
This is one part of the list. Further columns of the screen follow, without active or inactive calls. Compounds called inactive in the main read-out are mostly missing here. Potencies come from curve fits of mixed quality, noted in brackets.

Assay: qHTS Assay for Lipid Storage Modulators in Drosophila S3 Cells;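 on cell number change: cells counted by Cell Tracker Red CMTPX staining in the red channel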
Settings: BODIPY lipid droplet fluorescence, 18-24 h; for cell number change: measured here: cell count max response, cells fed with added oleic acid
Outline: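 Drosophila S3 cells got compounds at several concentrations plus oleic acid (400 uM solution). Laser-scanning cytometry with 488 nm excitation read lipid droplets at 500-530 nm and cells at 575-640 nm. Percent activity was relative to 20 uM Triacsin C.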

[1] = measured here: cell number channel AC50, cells fed with added oleic acid
[2] = measured here: lipid fluorescence (Fed channel) AC50, cells fed with added oleic acid

## CN1Cc2cccc3c2C(Cc2ccccc2S3)C1 (stereo not drawn)
  cell number change: 87%
[1]
  AC50: 29.1 µM [rising, single point]

## CC(C)N1C2OC(C3OC4C(O3)N(C(C)C)S(=O)(=O)N4C(C)C)OC2N(C(C)C)S1(=O)=O (stereo not drawn)
  cell number change: -19.2%
[1]
  AC50: 0.0326 µM [falling, full curve, poor fit]

## O=C(COC(=O)c1cccc(S(=O)(=O)N2CCCC2)c1)Nc1ccccc1C(F)(F)F
  cell number change: -22.5%

## C/C(=C\c1ccc2c(c1)OCO2)C1Nc2cccc3cccc(c23)N1
  cell number change: 18.8%

## NC1=NC(c2cccc(O)c2)n2c(nc3ccccc32)N1 (stereo not drawn)
  cell number change: 5.57%

## Cc1cc(NC(=O)/C=C/c2ccccc2Cl)n(-c2nc3ccccc3[nH]2)n1
  cell number change: -13.7%
[2]
  AC50: 29.1 µM [falling, single point]

## O=C(CP(=O)(c1ccccc1)c1ccccc1)N1CCCCC1
  cell number change: -154%
[2]
  AC50: 29.1 µM [falling, single point]

## CC[C@H](C)C(N)c1cn([C@@H](CC(N)=O)C(=O)N2CCNCC2)nn1 (stereo partly drawn)
  cell number change: -22.2%
[2]
  AC50: 20.6 µM [rising, single point]

## CN(CCOc1ccc(-c2ccn(S(=O)(=O)c3ccc(Cl)cc3)n2)cc1)c1ccccn1
  cell number change: 13%
[2]
  AC50: 13 µM [rising, partial curve]

## Cn1nccc1C(=O)N1CCOCC1
[2]
  AC50: 0.0058 µM [rising, full curve, poor fit]

## Cc1ccc(-n2ncc3c(=O)n(Cc4ccccn4)cnc32)cc1C
  cell number change: 5.29%

## O=c1c(/C=N/OCc2ccc(Cl)cc2Cl)c[nH]n1-c1cccc(Cl)n1
  cell number change: 15%

## O=C(O)C(CCCCN1C(=O)c2ccccc2C1=O)N1C(=O)c2ccccc2C1=O (stereo not drawn)
[2]
  AC50: 0.00517 µM [falling, full curve, poor fit]

## COc1ccc(OC)c(S(=O)(=O)N2CCC(C(=O)Nc3cccc(C)c3)CC2)c1
  cell number change: 86.8%
[1]
  AC50: 11.6 µM [rising, partial curve]
[2]
  AC50: 5.8 µM [rising, single point]

## COc1ccc(CCNC(=O)COC(=O)c2cnccn2)cc1
  cell number change: 37.9%
[1]
  AC50: 25.9 µM [rising, single point]
[2]
  AC50: 29.1 µM [rising, single point]

## Cc1ccccc1-n1ncc2c1CC(C)(C)CC2NC(=O)CSc1ccncc1 (stereo not drawn)
[2]
  AC50: 0.517 µM [falling, full curve]

## CCCN(CC(=O)Nc1ccccc1C)C(=O)c1cccc(S(=O)(=O)N2CCN(c3ccccc3)CC2)c1
  cell number change: 37.7%
[1]
  AC50: 0.58 µM [rising, single point]
[2]
  AC50: 0.461 µM [rising, single point]

## COc1ccc(-c2cc(C(=O)N3CCCC3)no2)cc1
  cell number change: 23%
[2]
  AC50: 11.6 µM [falling, single point]

## Cc1cccc(N2CCN(C(=O)CC(NC(=O)c3ccccc3)c3ccccc3)CC2C)c1 (stereo not drawn)
  cell number change: -4.22%
[2]
  AC50: 0.164 µM [falling, full curve, poor fit]

## CCCCC(CC)C(=O)NCCCN1CCN(CCCNC(=O)C(CC)CCCC)CC1 (stereo not drawn)
  cell number change: 8.79%
[2]
  AC50: 0.517 µM [falling, full curve, poor fit]

## CC(O)c1cc2c(cc1NC(=O)c1cnn3c1NC(c1ccco1)CC3C(F)(F)F)OCO2 (stereo not drawn)
  cell number change: 20.1%
[2]
  AC50: 1.84 µM [rising, full curve]

## O=C(CSc1ccccc1)NC1CCCCCCC1
  cell number change: 30.2%
[1]
  AC50: 7.31 µM [rising, partial curve, poor fit]
[2]
  AC50: 11.6 µM [rising, partial curve, poor fit]

## O=C(COC(=O)c1ccccc1)NCCC1=CCCCC1
  cell number change: 9.65%
[2]
  AC50: 0.00517 µM [falling, full curve, poor fit]

## CCN(CC(=O)Nc1c(F)cccc1F)C(=O)c1ccc(=O)n(Cc2ccccc2)n1
[2]
  AC50: 3.26 µM [rising, full curve]

## CN(c1ccc(OCC(=O)Nc2nc(-c3ccccc3)cs2)cc1)S(=O)(=O)c1ccc(F)cc1
  cell number change: 1.27%
[2]
  AC50: 1.64 µM [rising, full curve]

## Cc1cc2c(c(=O)n1Cc1cccnc1)C(c1cccs1)C(C#N)=C(N)O2 (stereo not drawn)
[1]
  AC50: 1.3 µM [rising, full curve]
[2]
  AC50: 1.46 µM [rising, full curve]

## Cc1ccc(CN(c2ccc(C(=O)N3CCOCC3)cc2)S(C)(=O)=O)cc1
  cell number change: -15.8%

## COc1cccc(NC(=O)CN(C)CC(=O)NC(C)c2ccccc2)c1 (stereo not drawn)
  cell number change: -29.9%
[2]
  AC50: 18.4 µM [falling, partial curve, poor fit]

## COc1ccc(/C=N/Nc2ccc(C(=O)O)cc2)c(OC)c1OC
  cell number change: -16.2%
[2]
  AC50: 6.51 µM [rising, single point]

## Cc1nnc(NCc2n[nH]c(=O)c3ccccc23)c2ccccc12
  cell number change: -40.7%
[1]
  AC50: 16.4 µM [falling, single point]
[2]
  AC50: 0.411 µM [rising, full curve, poor fit]

## COc1ccc(-c2ccnc(-c3ccc(O)cc3)n2)cc1
  cell number change: -0.34%
[1]
  AC50: 0.517 µM [falling, single point]
[2]
  AC50: 0.517 µM [falling, single point]

## CN1CCCCc2c1nc1ccccc1c2N (tested in a mixture with another compound)
  cell number change: 33.1%
[1]
  AC50: 11.6 µM [rising, partial curve]
[2]
  AC50: 0.651 µM [rising, partial curve]

## O=C(N/N=C/c1cc([N+](=O)[O-])ccc1O)C12CC3CC(CC(C3)C1)C2
  cell number change: 18.2%

## CCN(CC)S(=O)(=O)c1ccc(Cl)c(NC(=O)COC(=O)C2CCCCC2)c1
  cell number change: -5.62%
[2]
  AC50: 2.91 µM [rising, partial curve, poor fit]

## Cc1nc2ccccc2nc1OCc1ccccc1
  cell number change: -32.6%
[1]
  AC50: 25.9 µM [falling, single point]
[2]
  AC50: 3.26 µM [rising, partial curve]

## CC(=O)Nc1nn(C)c2nc(C)cc(C)c12
  cell number change: 158%

## CN(Cc1ccco1)S(=O)(=O)c1ccc(CN2C(=O)c3cccnc3C2=O)s1
  cell number change: 6.12%
[2]
  AC50: 0.82 µM [rising, full curve, poor fit]

## O=C(CSc1nnc(-c2ccc(Cl)cc2)n1-c1ccccc1)N/N=C/c1ccccc1C(=O)O
  cell number change: 9.85%
[2]
  AC50: 6.51 µM [rising, single point]

## Fc1ccc(N/N=C/c2ccncc2)c(F)c1
  cell number change: -8.64%

## Cc1ccc(NC(=O)/C(C#N)=C/c2ccc(C)s2)c(C)c1
  cell number change: 98.7%
[1]
  AC50: 0.103 µM [rising, full curve]
[2]
  AC50: 0.082 µM [rising, full curve]

## COc1cccc(N2CC(C(=O)N3CCC4(CC3)CC(=O)c3ccccc3O4)CC2=O)c1 (stereo not drawn)
[1]
  AC50: 5.8 µM [rising, partial curve]

## Cc1ccc(-n2c(Cc3cccn3C)nnc2SCC(N)=O)cc1
  cell number change: 2.67%
[2]
  AC50: 1.64 µM [falling, full curve, poor fit]

## O=C(CCCSc1nnc(-c2cccs2)n1CC1CCCO1)c1ccccc1 (stereo not drawn)
  cell number change: 20.4%
[1]
  AC50: 2.06 µM [rising, partial curve, poor fit]
[2]
  AC50: 7.31 µM [rising, partial curve]

## CC(C)n1c(SCCCc2ccccc2)nc2c1c(=O)[nH]c(=O)n2C
  cell number change: 4.23%
[2]
  AC50: 8.2 µM [rising, partial curve]

## CCOC(=O)NS(=O)(=O)c1ccc(CCNC(=O)c2cc(C)on2)cc1
  cell number change: -24.7%
[2]
  AC50: 0.259 µM [falling, full curve]

## Cc1cc(-c2ccc(/C=N/n3cnnc3)o2)c([N+](=O)[O-])cc1C
  cell number change: -9.76%
[2]
  AC50: 23.1 µM [falling, single point]

## CN=C1C([N+](=O)[O-])=CC=C2C1=NC1(CCCCC1)N2O
  cell number change: -4%

## COc1ccccc1NC(=S)N1CCN(Cc2ccccc2)CC1
  cell number change: 24.2%
[2]
  AC50: 10.3 µM [rising, partial curve, poor fit]

## Cc1cc2cc(CNC(=S)Nc3ccc(OC(F)F)cc3)ccc2n1C
  cell number change: 0.961%
[2]
  AC50: 29.1 µM [falling, single point]

## CCOC(=O)c1ccc(NC(=O)CN2CCN(C(=O)c3ccco3)CC2)cc1
  cell number change: 5%
[2]
  AC50: 0.0731 µM [rising, full curve, poor fit]

## Cn1cccc1P(=O)(c1cccn1C)c1cccn1C
[2]
  AC50: 5.8 µM [falling, partial curve]

## COc1ccccc1CNS(=O)(=O)c1ccc(-c2cnc(C3CC3)o2)cc1
  cell number change: -10%
[1]
  AC50: 1.03 µM [rising, partial curve, poor fit]

## Cc1ccc(Cn2ncc3c(N4CCN(Cc5ccc(Cl)cc5)CC4)ncnc32)cc1
  cell number change: 48.2%
[1]
  AC50: 25.9 µM [rising, single point]

## Cc1ccc2c(c1)C(C)(C)[C@]1(C)NC(=O)CCN21
  cell number change: -90.1%
[1]
  AC50: 29.1 µM [falling, single point]
[2]
  AC50: 5.8 µM [falling, full curve]

## Cc1ccc(C)c(/C=N/NC(=S)NCCc2ccccc2)c1
[2]
  AC50: 0.461 µM [rising, partial curve, poor fit]

## COc1ccc(CNS(=O)(=O)NCc2ccc(C)cc2)cc1OC
  cell number change: 8.96%
[1]
  AC50: 0.651 µM [rising, single point]
[2]
  AC50: 0.651 µM [rising, full curve, poor fit]

## COCCNC(=O)c1c[nH]c2ccc(S(=O)(=O)Nc3ccc(F)cc3F)cc2c1=O
  cell number change: 15.3%

## O=[N+]([O-])c1cc(-c2ccc(/C=N/c3nc4ccccn4c3-c3ccco3)o2)ccc1Cl
  cell number change: 25.2%

## COc1ccc(NC(=O)C2CCN(c3nnnn3-c3ccccc3)CC2)cc1
  cell number change: -19.3%

## OCC[C@H]1C[C@H](O)[C@@H](O)[C@]2(Cc3ccccc3CO2)O1
  cell number change: 4.92%

## O=C1CCC/C(=N\NC(=O)c2ccc(COc3cccc4cccnc34)cc2)C1
  cell number change: 11.9%
[2]
  AC50: 29.1 µM [rising, single point]
